Experimental data reported in publication PMC2824750.
Results are given in words; binding and its absence hold for the method and conditions named. Binding seen in cells or lysates may run through a third protein. Some entries that bind do so weakly or less than the wild type. Sequences can lack the tags named with a protein.

Chains of the proteins cited; added tags and fusions are not shown. Lines headed by an entry give the natural chain unless they say otherwise; changes in a name come on top. A line that says so, or that is headed by a name, gives the form on record, which may keep a tag or linker.
in vitro translated 35S-labelled Drosophila Dnmt2 (TNT-dDnmt2) (Q9VKB3, form named): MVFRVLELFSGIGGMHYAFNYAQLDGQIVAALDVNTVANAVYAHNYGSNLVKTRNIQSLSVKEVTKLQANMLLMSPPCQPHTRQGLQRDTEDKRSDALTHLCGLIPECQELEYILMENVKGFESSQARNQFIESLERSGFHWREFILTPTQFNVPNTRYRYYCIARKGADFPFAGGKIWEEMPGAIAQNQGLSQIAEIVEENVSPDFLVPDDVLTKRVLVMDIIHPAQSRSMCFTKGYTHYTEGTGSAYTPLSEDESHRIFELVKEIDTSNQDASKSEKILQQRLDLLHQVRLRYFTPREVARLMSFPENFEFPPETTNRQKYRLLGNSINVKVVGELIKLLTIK

T1: GST-Ehenolase (E. histolytica) (UniProt P51555)
T1 sequence: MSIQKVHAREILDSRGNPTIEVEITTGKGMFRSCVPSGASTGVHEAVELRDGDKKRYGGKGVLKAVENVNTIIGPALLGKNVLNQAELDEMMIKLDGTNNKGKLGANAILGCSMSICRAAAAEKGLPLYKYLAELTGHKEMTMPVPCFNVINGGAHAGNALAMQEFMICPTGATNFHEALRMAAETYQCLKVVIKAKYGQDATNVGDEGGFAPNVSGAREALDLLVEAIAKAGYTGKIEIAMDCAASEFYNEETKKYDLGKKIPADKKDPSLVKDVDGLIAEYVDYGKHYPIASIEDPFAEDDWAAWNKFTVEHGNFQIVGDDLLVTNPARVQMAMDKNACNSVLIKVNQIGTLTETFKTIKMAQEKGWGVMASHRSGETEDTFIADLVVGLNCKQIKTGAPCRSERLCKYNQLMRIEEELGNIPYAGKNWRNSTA

B1: in vitro translated 35S-labelled human Dnmt2 (TNT-hDnmt2) (enzyme, UniProt O14717-1 1-391)
chain: MEPLRVLELYSGVGGMHHALRESCIPAQVVAAIDVNTVANEVYKYNFPHTQLLAKTIEGITLEEFDRLSFDMILMSPPCQPFTRIGRQGDMTDSRTNSFLHILDILPRLQKLPKYILLENVKGFEVSSTRDLLIQTIENCGFQYQEFLLSPTSLGIPNSRLRYFLIAKLQSEPLPFQAPGQVLMEFPKIESVHPQKYAMDVENKIQEKNVEPNISFDGSIQCSGKDAILFKLETAEEIHRKNQQDSDLSVKMLKDFLEDDTDVNQYLLPPKSLLRYALLLDIVQPTCRRSVCFTKGYGSYIEGTGSVLQTAEDVQVENIYKSLTNLSQEEQITKLLILKLRYFTPKEIANLLGFPPEFGFPEKITVKQRYRLLGNSLNVHVVAKLIKILYE
modifications: 35S labelled

Biological target: T1, GST-Ehenolase (E. histolytica)
Experiment: pull-down; glutathione beads coated with GST-Enolase or GST (20–50 µg) incubated with in vitro translated 35S-methionine-labelled protein (15 µl TNT reaction) in 20 mM Hepes pH 7.9, 100 mM NaCl, 1 mM DTT, 6 mM MgCl2, 20% glycerol, 1% Nonidet P40, 0.5 mM EDTA, one hour at room temperature; autoradiography; only the target purified

| Molecule | binding |
| --- | --- |
| in vitro translated 35S-labelled Drosophila Dnmt2 (TNT-dDnmt2) (from UniProt Q9VKB3 1-345) (enzyme) | binds |
| B1 | binds |
